This is one part of the list. The main result of the screen is listed elsewhere. These columns were measured beside it and carry no call. Most of these compounds were active or inconclusive in the main read-out, so they are no random draw. Potencies come from curve fits of mixed quality, noted in brackets.

In general, AC50 refers to the concentration giving half of the maximal activity seen.

The assay in a line: qHTS Assay for Lipid Storage Modulators in Drosophila S3 Cells.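 On cell number change: cells counted by Cell Tracker Red CMTPX staining in the red channel.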 The settings on record: BODIPY lipid droplet fluorescence, 18-24 h; for cell number change: measured here: cell count max response, cells fed with added oleic acid. A digest of the protocol: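 Drosophila S3 cells got compounds at several concentrations plus oleic acid (400 uM solution). Laser-scanning cytometry with 488 nm excitation read lipid droplets at 500-530 nm and cells at 575-640 nm. Percent activity was relative to 20 uM Triacsin C.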
For orientation: qHTS replaces the single test concentration by a dilution series.

Setting [1] is: measured here: lipid fluorescence (Fed channel) AC50, cells fed with added oleic acid.
Setting [2] is: measured here: cell number channel AC50, cells fed with added oleic acid.

`Cc1c(Br)cc(C(=O)N2CCN(CCO)CC2)c(C)c1C`: the cell number change is -12.9%. In addition, the AC50 under setting [1] is 14.6 µM [falling, partial curve, poor fit].
On to `Cn1c(=O)n(Cc2ccc(Cl)cc2)c2ccccc21`, for which the cell number change amounted to 37.4%. Under setting [2], the AC50 is 7.31 µM [rising, partial curve, poor fit]. Moreover, under setting [1], the AC50 was 4.11 µM [rising, single point].
Take `CNc1nc(Cl)nc(Nc2ccccc2)n1`: the cell number change is 23.5%. Besides, the AC50 under setting [2] was 2.59 µM [rising, single point]. Under setting [1], the AC50 is 5.8 µM [rising, single point].
Regarding `COc1cccc(-c2cc(C(=O)NN3CCOCC3)c3ccccc3n2)c1`, the cell number change came to 1.57%. Also, the AC50 under setting [1] is 29.1 µM [falling, single point].
For the molecule `CCN(CC1COc2ccccc2O1)C(=S)NCCCN(C)C` (stereo not given), the cell number change was -3.65%. Moreover, the concentration at half-maximal activity (AC50) under setting [2] is 0.092 µM [falling, full curve, poor fit]. Further, the AC50 under setting [1] is 29.1 µM [falling, single point].
Regarding `O=C(NC1=NCCS1)c1sc2ccccc2c1Cl`, under setting [1], the concentration at half-maximal activity (AC50) is 0.461 µM [rising, single point].
With `COc1cc(C(=O)NCCc2ccc(S(=O)(=O)N3CCCC3)cc2)cc(OC)c1OC`, the cell number change is -5.87%. The AC50 under setting [1] was 3.66 µM [falling, full curve, poor fit].
On to `COc1ccccc1S(=O)(=O)Cc1ccc(C(=O)NCc2cccnc2)o1`, for which the cell number change was -7.29%. Besides, under setting [1], the AC50 was 0.058 µM [rising, full curve].
As for `CN(C)c1ccc(CN2CCCC(O)C2)cc1` (stereo not given), the cell number change came out at 6.19%.
On to `Fc1ccc(CN2CCCCCCC2)cc1`, for which the cell number change was -52.7%. The AC50 under setting [2] is 16.4 µM [falling, partial curve]. Further, the AC50 under setting [1] is 16.4 µM [falling, partial curve].
`CC(C)(C)OC(=O)N/N=C/c1ccc(Br)cc1`: the cell number change is -36.5%. Besides, under setting [1], the AC50 was 29.1 µM [falling, single point].
For the molecule `Cn1nnnc1SCC(=O)Nc1cccc([N+](=O)[O-])c1`, the AC50 under setting [1] was 20.6 µM [rising, single point].
As to `CCOc1ccc(NCC(=O)Nc2ccc(C)cc2C)cc1`, the cell number change was found to be 6.55%. Further, the half-maximal activity concentration (AC50) under setting [1] is 1.3 µM [rising, full curve].
For the molecule `O=C(COc1ccc(Cl)cc1Cl)N/N=C/c1cccnc1`, the cell number change is -42.3%.
Regarding `CC(=O)Nc1ccc(NC(=O)COC(=O)c2cc(S(=O)(=O)N(C)C)ccc2N2CCCC2)cc1`, the AC50 under setting [1] was 29.1 µM [rising, single point].
Still for that read-out and setting: next, `COc1ccc(CNc2ncccc2[N+](=O)[O-])cc1`: 29.1 µM [rising, single point].
In the case of `O=[N+]([O-])c1ccc(N2CCOCC2)nc1`, the cell number change was -6.59%. Moreover, under setting [1], the half-maximal activity concentration (AC50) was 29.1 µM [rising, single point].
For the molecule `Cc1cc(=O)[nH]c(-c2ccccc2)n1`, the cell number change was -40.9%. In addition, the concentration at half-maximal activity (AC50) under setting [2] is 16.4 µM [falling, partial curve]. Further, under setting [1], the AC50 was 14.6 µM [falling, partial curve].

These data come from PubChem BioAssay AID2685 (National Center for Advancing Translational Sciences (NCATS), 2010).
